In publication PMC6925144, “A prospective compound screening contest identified broader inhibitors for Sirtuin 1” (Scientific Reports, 2019):
In all, about 3,200 compounds were measured (“TSA(without NAD+) / Primary screening (TSA) / delta Tm (K)”: median about -0.07, highest 2% from about 0.37 on). Some of the results follow.

By UniProt entry, the sequences of proteins in these tests, tags left out. Residues count along the entry.
UniProt Q96EB6, 2-747 limits assumed: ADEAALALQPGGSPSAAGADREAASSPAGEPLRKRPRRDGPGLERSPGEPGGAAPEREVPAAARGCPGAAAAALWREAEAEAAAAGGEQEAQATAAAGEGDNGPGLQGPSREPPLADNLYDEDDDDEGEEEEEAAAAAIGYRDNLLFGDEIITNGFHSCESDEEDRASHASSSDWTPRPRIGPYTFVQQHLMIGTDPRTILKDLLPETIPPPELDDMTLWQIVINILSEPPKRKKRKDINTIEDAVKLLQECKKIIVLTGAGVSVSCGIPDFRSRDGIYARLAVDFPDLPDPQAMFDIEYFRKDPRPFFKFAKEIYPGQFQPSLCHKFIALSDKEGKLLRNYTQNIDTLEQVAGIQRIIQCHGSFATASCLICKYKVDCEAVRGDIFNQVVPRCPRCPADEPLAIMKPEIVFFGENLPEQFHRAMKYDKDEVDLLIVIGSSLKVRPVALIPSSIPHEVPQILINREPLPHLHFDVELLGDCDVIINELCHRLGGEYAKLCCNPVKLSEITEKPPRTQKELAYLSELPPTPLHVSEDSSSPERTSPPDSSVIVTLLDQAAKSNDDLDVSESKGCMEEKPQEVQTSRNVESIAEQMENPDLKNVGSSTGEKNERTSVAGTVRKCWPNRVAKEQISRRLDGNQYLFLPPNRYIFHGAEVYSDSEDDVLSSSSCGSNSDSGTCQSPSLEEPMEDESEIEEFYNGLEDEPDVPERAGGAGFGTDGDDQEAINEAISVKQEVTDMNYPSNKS

These molecules were tested against NAD-dependent deacetylase Sirtuin 1 (human, UniProt Q96EB6) (assay: primary screen, delta tm). Details: 10 µM.
Parameters: single well (n = 1)
Summary of the method: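 Thermal shift of Sirtuin 1 measured without NAD+, compound at 10 µM (n = 1); value is ΔTm, with hits defined as ΔTm > 0.45 K or < −1.5 K. Hits retested at 5, 10, 20 µM (n = 4) and counterscreened on bovine carbonic anhydrase and ABL1 SH2 domain.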

Row | SMILES | TSA(without NAD+) / Primary screening (TSA) / delta Tm (K)
1 | O=C(NN/C=C1/C(=O)N(c2cccc(C(F)(F)F)c2)C(=O)c2ccccc21)c1cccc(S(=O)(=O)Nc2ccccc2Cl)c1 | 1.45
2 | O=C(CNc1cnc2ccccc2n1)N1CCCc2ccccc21 | -0.03
3 | CC(=O)Nc1ccc(NCc2cc(=O)oc3c(C)c(O)ccc23)cc1Cl | 0.02
4 | O=C(OCc1cc(=O)n2ccccc2n1)c1ccccc1C(F)(F)F | -0.18
5 | OCC[C@@H](Nc1cncc(Cl)n1)c1ccccc1 | -0.12
6 | NC(=O)c1cccc(NC(=O)c2nn(Cc3ccccc3)c(=O)c3ccccc23)c1 | -0.03
7 | COc1ccc(Br)cc1/C=C1/Cc2ccccc2C1=O | -0.08
8 | O=C(C1=C(O)C(=O)N(CCCN2CCOCC2)C1c1cccc([N+](=O)[O-])c1)c1ccc(F)cc1 (stereo not shown) | -0.11
9 | CCN(C(=O)COC(=O)CN1C(=O)NC2(CCCc3ccccc32)C1=O)c1nc2ccccc2s1 (stereo not shown) | -0.12
10 | C=CCN(C(=O)CSc1nnc(-c2ccccc2)o1)c1nc(-c2ccccc2)cs1 | 0.13
11 | COc1cc(C)ccc1Oc1ccc(NC(=O)Cc2c(C)nc(-c3ccccn3)[nH]c2=O)cn1 | 0.29
12 | Cn1ncc2c(=O)cc[nH]c21 | -0.13
13 | COc1ccc2[nH]cc(C3CCN(C(=O)c4coc(C)c4)CC3)c2c1 | -0.03
14 | O=C(COC(=O)c1ccc2c(c1)S(=O)(=O)c1ccccc1C2=O)Nc1ncc(Cl)cc1Cl | 0.02
15 | CC1(NC(=O)CSc2nnc(NCCc3cccs3)s2)CCS(=O)(=O)C1 (stereo not shown) | -0.03
16 | Cc1cc(F)ccc1N1CCCC(Nc2ccc3nnnn3n2)C1 (stereo not shown) | 0.63
17 | Cc1ccc(F)c(/N=C/c2ccccc2O)c1 | 0.08
18 | CC(OC(=O)C1CCCN1C(=O)C12CC3CC(CC(C3)C1)C2)C(=O)c1c[nH]c2ccccc12 (stereo not shown) | -0.02
19 | CC(NC(=O)COC(=O)c1ccc(NS(=O)(=O)c2ccc3c(c2)OCCO3)cc1)C12CC3CC(CC(C3)C1)C2 (stereo not shown) | 0.26
20 | Cc1ccc(N(Cc2ccccc2)C(=O)N(C)Cc2cnccn2)cc1 | 0.02
21 | CC(=O)Nc1ccc(NC(=O)c2cccc(C(N)=O)c2)cc1C | -0.07
22 | c1ccc(-c2c3c(nc4sc5c(c24)CCCC5)-c2ccccc2CC3)cc1 | -0.03
23 | COc1ccc(Br)cc1/C=C1/COc2ccccc2C1=O | -0.03

Row | SMILES | TSA(without NAD+) / Primary screening (TSA) / delta Tm (K)
24 | O=c1cc(NCc2ccccc2Cn2cccn2)nc2ccccn12 | 0.12
25 | CC(OC(=O)C1=COCCO1)C(=O)Nc1ccc(N2CCOCC2)cc1 (stereo not shown) | -0.02
26 | C=CCOc1cccc(C2C(C(=O)c3ccc(OC)cc3)=C(O)C(=O)N2CCCN2CCOCC2)c1 (stereo not shown) | 0.15
27 | O=C(CCCc1nc2ccccc2s1)Nc1cccc(S(=O)(=O)NCc2ccco2)c1 | -0.18
28 | O=C(Nc1cccc(S(=O)(=O)N2CCOCC2)c1)c1ccccc1OCc1ccccc1 | 0.08
29 | Cn1c(=O)[nH]c(=O)c2c1nc(N1CCC(C(N)=O)CC1)n2CCSc1nc2ccccc2s1 | 0.02
30 | CCC(CC)C(O)CN (stereo not shown) | -0.08
31 | O=C(O)CN1C(=O)COc2ccccc21 | 0.02
32 | Cc1cc(C)n(-c2cccc(N3CC(C(=O)O)CC3=O)c2)n1 (stereo not shown) | -0.03
33 | O=C(NCCn1cnc2ccccc21)c1ccc(N2CCCCC2=O)cc1 | -0.08
34 | CC(C)N(Cc1ccccc1)C(=O)COC(=O)/C=C/c1ccc(S(=O)(=O)N2CCCCCC2)cc1 | -0.08
35 | O=C1NC(=O)C(=Cc2cn(-c3ccccc3)nc2-c2cc3ccccc3o2)C(=O)N1 | -0.08
36 | CC(OC(=O)/C=C/c1ccc2c(c1)OCO2)C(=O)Nc1cccc([N+](=O)[O-])c1 (stereo not shown) | -0.13
37 | O=C(O)CC[C@@H](O)C(=O)O | -0.03
38 | NC(=S)c1ccc(C(=O)N2CCCC(C(=O)NC3CC3)C2)cc1 (stereo not shown) | -0.03
39 | O=C(NC(c1ccccc1)c1ccc2nc(C(F)(F)F)[nH]c2c1)C1=COCCO1 (stereo not shown) | -0.11
40 | Cn1c(SCCCC(=O)c2ccccc2)nc2ccsc2c1=O | -0.17
41 | CNC(=O)CCN(C)c1cccc(F)c1C#N | -0.11
42 | COc1ccc(C(=O)C2=C(O)C(=O)N(CCCN3CCOCC3)C2c2ccncc2)cc1OC (stereo not shown) | -0.15
43 | O=S(=O)(c1ccc(C(F)(F)F)cc1)N1CCNCC1 | -0.12
44 | CCOC(=O)c1sc2nc(CSc3nncn3-c3ccccc3)[nH]c(=O)c2c1C | -0.04
45 | COc1ccc(C=C2C(=O)NC(=S)NC2=O)cc1OC | 0.07
46 | Cc1ccc(N(C)S(=O)(=O)c2cccc(C(=O)NCCCn3cnc4ccccc43)c2)cc1 | -0.02

Exported with tabs: entries from further up
Row	SMILES	TSA(without NAD+) / Primary screening (TSA) / delta Tm (K)
9	CCN(C(=O)COC(=O)CN1C(=O)NC2(CCCc3ccccc32)C1=O)c1nc2ccccc2s1 (stereo not shown)	-0.12
10	C=CCN(C(=O)CSc1nnc(-c2ccccc2)o1)c1nc(-c2ccccc2)cs1	0.13
11	COc1cc(C)ccc1Oc1ccc(NC(=O)Cc2c(C)nc(-c3ccccn3)[nH]c2=O)cn1	0.29
